Reference: PubChem BioAssay AID504791 (Drosophila RNAi Screening Center, 2011)

Aim: 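Factors in Argonaute-based small RNA production and activity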 (primary screen)
System: Drosophila S2-derived reporter cells
Reagent: long dsRNA against Drosophila genes, about 150-250 ng dsRNA per well (siRNA assay); about 80-120 ng (miRNA assay)
Timing: about 5 days (siRNA assay); about 4 days (miRNA assay)
Challenge: copper sulfate induction of reporters: 25 µM (siRNA assay); 200 mM stated (miRNA assay), 1-2 days before reading
Detection: 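Dual luciferase assay: Renilla to firefly signal ratio in each well, scaled to the mean ratio of its plate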
Rule for the call: 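a well was a first-pass pick when its plate-scaled ratio rose above 1.5 (siRNA assay) or 1.6 (miRNA assay), or dropped below 0.6; a gene counted only if two separate dsRNAs agreed on retest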
The screen tested about 23,000 reagents; this is an unselected part of those with a known target gene and a result. Of all reagents, 199 (0.86%) are marked active. 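Plate-scaled ratios behind the calls are not deposited; printed light signals are raw; many rows marked increased or decreased are still called inactive.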 A plus sign joins genes that one reagent is predicted to hit. Reagent sequences are not shown. Not given: the direction of the score.

stable siRNA reporter change,miRNA reporter change,"stable assay Renilla, run 1 (luminescence)","stable assay firefly, run 1 (luminescence)",Outcome,target gene,DRSC id
,,8639,3.29e5,inactive,Nep4,DRSC15539
,,7340,3.62e5,inactive,CG12290,DRSC14497
,,7243,4.14e5,inactive,CG14932,DRSC02414
,,6895,5.11e5,inactive,sl,DRSC20377
,,9145,4.25e5,inactive,sl,DRSC21782
,,7299,3.74e5,inactive,CG7685,DRSC16285
,reporter ratio lowered past the hit cutoff,,,inactive,CG7685,DRSC27560
,,6651,4.65e5,inactive,qsm,DRSC05896
,,5667,3.78e5,inactive,qsm,DRSC06393
,,8152,2.56e5,inactive,CG3961,DRSC10390
,,7607,5.92e5,inactive,CG3961,DRSC10391
,,11443,5.27e5,inactive,CG11807,DRSC06087
,,6779,4.81e5,inactive,CG1418,DRSC06447
reporter ratio raised past the hit cutoff,,8221,2.83e5,active,Caf1-55,DRSC16596
,,4928,3.94e5,inactive,comt,DRSC20319
,,11380,3.52e5,inactive,ash2,DRSC16902
,,6600,5.03e5,inactive,Alp11,DRSC20080
,,7086,2.44e5,inactive,Rpn9,DRSC16840
,,5036,3.80e5,inactive,Pgant35A,DRSC03557
,,6656,3.23e5,inactive,CG4570,DRSC15602
,,8014,5.36e5,inactive,CG30105,DRSC05668
,,11930,5.64e5,inactive,CG3294,DRSC00590
,,6375,3.03e5,inactive,fzr,DRSC18781
,,6631,4.15e5,inactive,CG30428,DRSC04041
,,7347,4.97e5,inactive,Octbeta1R,DRSC16134
,,7438,5.64e5,inactive,ND5 (retired record),DRSC21281
,,5131,4.82e5,inactive,lcs,DRSC20580
,,8437,4.49e5,inactive,CG15514,DRSC15053
,,7570,4.04e5,inactive,CG6055,DRSC02923
,,7889,4.58e5,inactive,Pkc98E,DRSC16791
,reporter ratio lowered past the hit cutoff,,,inactive,Pkc98E,DRSC28311
,,5748,3.85e5,inactive,CG6163,DRSC10595
,,5351,3.42e5,inactive,AdamTS-B,DRSC18346
,,1.23e5,99096,inactive,Cdlc2,DRSC00743
,,5739,4.07e5,inactive,Gug,DRSC11179
,,5480,2.93e5,inactive,CG4041,DRSC18339
,,4459,3.99e5,inactive,Cht6,DRSC18001
,,5176,2.86e5,inactive,Cht6,DRSC18002
,,4299,3.59e5,inactive,Cht6,DRSC18253
,,3899,2.20e5,inactive,Cht6,DRSC23211

Continued; the last 7 above are carried over.
stable siRNA reporter change,miRNA reporter change,"stable assay Renilla, run 1 (luminescence)","stable assay firefly, run 1 (luminescence)",Outcome,target gene,DRSC id
,,1.23e5,99096,inactive,Cdlc2,DRSC00743
,,5739,4.07e5,inactive,Gug,DRSC11179
,,5480,2.93e5,inactive,CG4041,DRSC18339
,,4459,3.99e5,inactive,Cht6,DRSC18001
,,5176,2.86e5,inactive,Cht6,DRSC18002
,,4299,3.59e5,inactive,Cht6,DRSC18253
,,3899,2.20e5,inactive,Cht6,DRSC23211
,,5410,3.81e5,inactive,CG30334,DRSC05345
,,8111,3.89e5,inactive,Tapdelta,DRSC05946
,,8163,5.50e5,inactive,CG31793,DRSC02605
,,6578,3.68e5,inactive,CG13443,DRSC06403
,,5383,5.37e5,inactive,aurB,DRSC03548
,,5338,3.33e5,inactive,aurB,DRSC23324
,,5932,5.50e5,inactive,CG30082,DRSC22945
,,8690,3.74e5,inactive,tst,DRSC14212
,,6772,5.97e5,inactive,Ifrd1,DRSC00415
,,6251,4.16e5,inactive,Ifrd1,DRSC00566
,,7602,3.10e5,inactive,ninaB,DRSC16807
,,4392,2.49e5,inactive,CG42353 + CG42354,DRSC23154
,,6527,3.49e5,inactive,dpa,DRSC07604
,,6498,4.38e5,inactive,CG42337,DRSC11686
,,5143,2.64e5,inactive,CG42337,DRSC11687
,,5859,3.88e5,inactive,CG42337,DRSC23099
,,8886,3.54e5,inactive,kumpel,DRSC14883
,,7626,4.19e5,inactive,kumpel,DRSC16459
,,7719,4.75e5,inactive,kumpel,DRSC16460
,,7462,4.46e5,inactive,kumpel,DRSC16461
,,7191,3.82e5,inactive,kumpel,DRSC16462
,,6810,3.00e5,inactive,kumpel,DRSC16463
,,3384,1.74e5,inactive,CG34050 (retired record),DRSC09067
,,7088,3.27e5,inactive,Tmtc4,DRSC15702
,,7512,3.94e5,inactive,sbb,DRSC05723
,,7854,3.75e5,inactive,sbb,DRSC07676
,,6343,3.47e5,inactive,CG42748,DRSC03712
,,6395,2.89e5,inactive,CG42748,DRSC03713
,,6758,3.57e5,inactive,CG42748,DRSC03734
,,3196,3.38e5,inactive,CG13319,DRSC06356
,,5578,3.39e5,inactive,CG15185,DRSC12565
,,6355,4.70e5,inactive,CG32407,DRSC09789
,,8276,3.35e5,inactive,Hr96,DRSC16707
,,8716,5.88e5,inactive,CG30369,DRSC21996
,,7396,3.88e5,inactive,CG5390,DRSC02855
,,8084,5.71e5,inactive,Nnp-1,DRSC02165
,,4524,4.12e5,inactive,CG5214,DRSC15739
,,4011,3.99e5,inactive,CG5214,DRSC22842
,,5403,3.68e5,inactive,CAH3,DRSC17776
,,8312,4.75e5,inactive,Coq4 + Gorab + frc,DRSC10383
,,6175,5.38e5,inactive,bap,DRSC16908
,,5876,4.45e5,inactive,Sras,DRSC11287
,,6099,4.18e5,inactive,mRpL28,DRSC02724
